Our source for the AC50 values is PubChem BioAssay AID493014 (National Center for Advancing Translational Sciences (NCATS), 2011).

Molecules are shown by their SMILES. The list shows a part of the results. Further columns of the screen follow, without active or inactive calls. The list favours compounds with an active or inconclusive main result. The note in brackets gives the kind of curve behind each potency; many fits are weak.

The assay in a line: qHTS Assay to Find Inhibitors of Chronic Active B-Cell Receptor Signaling. Particulars: ABC-DLBCL IkBa-CBG/CBR reporter, luminescence ratio (green luciferase fused to IkBa over red control in TMD8 lymphoma cells), 4 h. The essentials: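 TMD8 ABC-DLBCL cells carrying doxycycline-inducible green luciferase fused to IkappaBalpha plus unfused red luciferase were exposed to compounds (up to 46 uM) for 4 hrs at 37C. Activity came from the overlap-corrected green/red luminescence ratio.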

[1] abbreviates: measured here: CBR red luminescence, cell number.
Where [2] appears, read: measured here: IkBa-CBG green luminescence.

Turning to `CCc1ccccc1SCc1noc(C(=O)NCC2CCCO2)c1C(=O)O` (stereo not drawn), under setting [1], the AC50 (commonly the concentration at which the activity in the assay is half-maximal) was 20 µM [falling, partial curve, poor fit].
The same measure, in the same setting: the same measure for `c1coc(CSc2ncnc3c2oc2ccccc23)c1`: 3.55 µM [rising, partial curve]; for `COc1ccccc1CNc1nc2nc(C)c(C)c(=O)n2[nH]1`: 29.1 µM [falling, single point].
Regarding `O=S(=O)(Cc1ccc(Cl)cc1)N1CCCCCC1`, under setting [1], the AC50 was 22.4 µM [rising, partial curve, poor fit].
For the compound `CCCCN1C(=O)/C(=C2/C=CC=CN2C)SC1=S`, the AC50 under setting [1] is 2.06 µM [rising, partial curve, poor fit].
The same measure, in the same setting: then `Cc1ccc(N2C(=O)N(CC(=O)Nc3cccc(C)c3C)C(=O)C2C)cc1` (stereo not drawn), with 20.6 µM [rising, single point]; and `COc1cccc(/C=C2\SC(=O)N(CC(=O)NC3C=CS(=O)(=O)C3)C2=O)c1` (stereo not drawn), with 7.08 µM [falling, partial curve]; and `O=C(NCc1ccccc1)c1nncc(-c2ccccc2)n1`, with 16.4 µM [falling, single point].
In the case of `Cn1ncc([N+](=O)[O-])c1C(=O)Nc1ccc(-c2nc3ccccc3[nH]2)cc1`, the AC50 under setting [1] was 32.6 µM [falling, single point].
`O=C(/C=C/c1cccs1)c1ccc(N2CCOCC2)cc1`: the concentration at half-maximal activity (AC50) under setting [1] was 14.1 µM [falling, single point].
Consider `COCCn1c(C23CC4CC(CC(C4)C2)C3)n[nH]c1=S`, for which the AC50 under setting [1] was 0.116 µM [falling, full curve, poor fit].
The same measure, in the same setting: then `COc1ccccc1N1C(C)=CC(=C(C#N)c2nc3ccccc3s2)C=C1C`, with 1.84 µM [falling, single point]; and `O=C(NC1CCCC1)c1ccc(S(=O)(=O)N2CCOCC2)cc1`, with 16.4 µM [falling, partial curve, poor fit]; and `CCCc1nc2ccc(N)cc2c(=O)n1Cc1ccccc1Cl`, with 0.1 µM [rising, full curve, poor fit].
With `COc1ccc(C(=O)Cn2nnc(-c3cccs3)n2)cc1`, the half-maximal activity concentration (AC50) under setting [1] is 23.1 µM [falling, partial curve, poor fit].
The same measure, in the same setting: the same measure for `COc1cc(/C=N/O)ccc1OCc1ccc(Cl)cc1`: 35.5 µM [falling, single point].
Regarding `COc1ccc(C(C)=O)cc1COc1cccc2cccnc12`, the AC50 is, setting by setting: under setting [1], 14.1 µM [rising, partial curve, poor fit]; under setting [2], 14.1 µM [falling, partial curve, poor fit].
On to `C=CCN(CC=C)c1cnn(-c2nc3ccccc3[nH]2)c(=O)c1Cl`, for which, under setting [1], the AC50 was 2.06 µM [falling, full curve].
For `CCOc1ccc(NC(=O)c2ccco2)c([N+](=O)[O-])c1`, the AC50 under setting [1] was 1.84 µM [rising, partial curve, poor fit].
Turning to `CC(C)c1ccc(/C=N/NC(=O)c2nnn(-c3nonc3N)c2CSC2=NCCS2)cc1`, the concentration at half-maximal activity (AC50) under setting [1] is 32.6 µM [falling, partial curve, poor fit].
Same read-out and setting: then `CCCC(=O)N1c2ccccc2[C@@H](N(C(C)=O)c2ccccc2)C[C@H]1C`, with 0.501 µM [falling, full curve, poor fit].
On the same count and under the same terms, the same measure for `Cc1ccc(N(Cc2cc(=O)[nH]c3ccccc23)C(=O)CCl)cc1`: 7.94 µM [falling, partial curve]; for `Cc1onc(-c2ccccc2)c1C(=O)NC(=S)NNC(=O)c1ccco1`: 15.8 µM [falling, single point]; for `CCCc1nc2ccccc2c(C(=O)OCC(=O)Nc2ccc(S(=O)(=O)N3CCOCC3)cc2)c1CC`: 29.1 µM [falling, single point].
For `Cn1ncc2c(Nc3ccc4ccccc4c3)ncnc21`, the AC50 under setting [1] was 0.631 µM [rising, full curve, poor fit].
As for `COC(=O)[C@]1(C)CCC[C@@]2(C)C3CC[C@]4(OC(C)=O)C[C@@]3(CCC21)CC4=NO` (stereo partly drawn), under setting [1], the AC50 is 25.9 µM [falling, single point].
Still for that read-out and setting: the same measure for `Cc1sc2ncnc(SCC#N)c2c1C`: 11.2 µM [rising, partial curve, poor fit]; for `C/C(CC(=O)Nc1ccc(OCc2ccccc2)cc1)=N\NC(=O)C(=O)Nc1ccccc1C`: 1.41 µM [falling, full curve, poor fit].
`N#C/C(=C\c1cc([N+](=O)[O-])ccc1Cl)C(N)=O`: the concentration at half-maximal activity (AC50) is 35.5 µM [falling, partial curve, poor fit] under setting [1] and 35.5 µM [falling, single point] under setting [2].
Take `CC(NCCC1(Cc2ccccc2Cl)CCOC(C)(C)C1)c1cccs1` (stereo not drawn): the AC50 under setting [1] is 35.5 µM [falling, single point].
With `Cc1csc(NC(=O)CCN2C(=O)c3ccccc3S2(=O)=O)n1`, under setting [1], the AC50 was 23.1 µM [falling, single point].
`Cc1ccc(Cl)cc1N1CCN(C(c2cccnc2)c2nnnn2C2CCCCC2)CC1` (stereo not drawn): the AC50 under setting [1] was 13 µM [rising, partial curve, poor fit].
Regarding `O=C(/C=C\c1cccs1)c1c(O)ccc2ccc(=O)oc12`, the AC50 under setting [1] is 10.3 µM [falling, partial curve, poor fit].
For `CCOc1ccc(CNC(=O)CCCc2cn(C)c3ccccc23)cc1OC`, the AC50 under setting [1] was 4.61 µM [rising, full curve].
The same measure, in the same setting: then `O=C(O)c1cccc(N/N=C/c2cccs2)c1`, with 0.58 µM [falling, full curve]; and `Cc1onc(-c2ccccc2Cl)c1C(=O)NC(=S)NCc1cccnc1`, with 11.2 µM [falling, partial curve].
The same measure, in the same setting: the same measure for `COc1cccc(/C(O)=C/c2nc3ccc(C(=O)NCCc4ccc(Cl)cc4)cc3[nH]c2=O)c1`: 9.2 µM [falling, partial curve]; for `CCOc1ccc(NS(=O)(=O)c2ccc(NC(=O)c3cccnc3)c(OC)c2)cc1`: 35.5 µM [falling, single point]; for `Cc1cccc(NC(=O)CSCC(=O)NCc2cccc(C(F)(F)F)c2)c1`: 3.98 µM [falling, single point].
On to `COc1ccc(NC(=O)CSc2nnc(-c3ccccc3)n2Cc2ccco2)c(OC)c1`, for which the AC50 under setting [1] is 4.47 µM [falling, partial curve, poor fit].
On the same count and under the same terms, the same measure for `COc1ccc2ccccc2c1/C=N\NC(=O)c1ccc(C)s1`: 7.94 µM [falling, partial curve, poor fit].
Turning to `CNC(=S)N/N=C(\C)c1ccc(Cl)c(Cl)c1`, the AC50 runs as follows: under setting [1], 35.5 µM [rising, single point]; under setting [2], 15.8 µM [falling, partial curve].
Take `C/C(=N/NC(=O)c1ccc(C)nc1)c1ccc2c(c1)CCCC2`: under setting [1], the AC50 was 35.5 µM [falling, single point].
Still for that read-out and setting: the same measure for `COc1ccc(NC(=O)n2ncc3c(C)cccc32)cc1`: 11.2 µM [falling, partial curve].
With `CC(=O)n1cc(N(C(=O)CCl)c2ccccc2)c2ccccc21`, the AC50 is 5.62 µM [falling, partial curve, poor fit] under setting [1] and 12.6 µM [rising, partial curve, poor fit] under setting [2].
For the compound `Cc1ccc(S(=O)(=O)N/N=C/c2ccc3nccnc3c2)cc1`, under setting [1], the AC50 is 12.6 µM [falling, single point].
On the same count and under the same terms, then `O=C(c1cccn2c(=O)c3ccccc3nc12)N1CCN(c2ccccn2)CC1`, with 6.51 µM [falling, single point].
Turning to `COc1ccc(C(=O)NNC(=O)C(=O)Nc2cccc3ccccc23)cc1`, the AC50 under setting [1] is 4.47 µM [falling, partial curve].
On the same count and under the same terms, then `CNC(=O)N1CCC(C(=O)c2c(C)c(C)c(C)c(C)c2C)CC1`, with 10 µM [rising, partial curve].
The same measure, in the same setting: the same measure for `CCOC(=O)N1CCC(NC(=O)c2cc3sccc3n2CC)CC1`: 1.12 µM [falling, partial curve, poor fit]; for `Cc1cc(NC(=O)CSc2nnc(-c3ccc(Br)o3)n2Cc2ccccc2)no1`: 12.6 µM [falling, single point]; for `CCOC(=O)Cc1csc(NC(=O)/C=C/c2ccc(Cl)cc2)n1`: 20 µM [falling, single point].
For the compound `CS(=O)(=O)N1N=C(c2cccs2)CC1c1ccccc1O` (stereo not drawn), the AC50 under setting [1] was 35.5 µM [rising, single point].
Regarding `CCCc1ccc2oc(C(=O)N3CCN(c4cnccn4)CC3)c(C)c2c1`, the AC50 under setting [1] was 7.08 µM [falling, partial curve].
On to `COc1ccc(Nc2nccc(-c3cccc(N)c3)n2)cc1`, for which the AC50 by setting is: under setting [1], 2.82 µM [falling, full curve, poor fit]; under setting [2], 3.16 µM [rising, full curve, poor fit].
`CCN(CCNc1ccc(Cl)cc1[N+](=O)[O-])C(=O)c1cc([N+](=O)[O-])c(N(C)C)cc1OC`: under setting [1], the AC50 was 9.2 µM [rising, partial curve, poor fit].
The same measure, in the same setting: the same measure for `COC(=O)CC1=NN(c2ccccc2)C(=O)C1`: 10 µM [falling, partial curve, poor fit]; for `Cc1ccccc1NC(=O)COC(=O)CC1CCCC1`: 7.31 µM [falling, partial curve].
With `O=C(Nc1ccc(Cl)cc1)Nc1ccccc1C(=O)O`, the AC50 under setting [1] is 0.0794 µM [falling, full curve, poor fit].
The same measure, in the same setting: then `Oc1ccccc1C(Nc1nccs1)c1ccc2cccnc2c1O` (stereo not drawn), with 11.2 µM [falling, partial curve, poor fit].
In the case of `CC(C)N=C1NN=C(c2ccc(Cl)c(Cl)c2)CS1`, under setting [1], the AC50 was 12.6 µM [falling, partial curve, poor fit].
Take `COc1ccccc1C(=O)Nc1ccnn1C1CCN(Cc2cn(C)c3ccccc23)CC1`: the AC50 under setting [1] is 0.891 µM [falling, partial curve, poor fit].
Regarding `Cc1ccc(N2CCN(c3ncccc3[N+](=O)[O-])CC2)c(C)c1`, the AC50 under setting [1] is 12.6 µM [rising, partial curve, poor fit].
